Results taken from article PMC5487381, “Thioredoxin A Is Essential for Motility and Contributes to Host Infection of Listeria monocytogenes via Redox Interactions” (Frontiers in Cellular and Infection Microbiology, 2017).
Results are given in words; binding and its absence hold for the method and conditions named. Binding can be weak; no strength is given.

Legend:
[1] = molecular target: GmaR, anti-repressor of MogR (Listeria monocytogenes EGD-e); experiment: ITC; TrxA, TrxAox or TrxA active-site mutants (80-200 uM) in the syringe, PrfA, MogR, GmaR or MogR and GmaR (8-20 uM) in the cuvette; 25 C; 25 mM Tris-HCl pH 7.5, 100 mM NaCl; 15 uL injections, 300 s spacing; 1:1 binding model; both purified
[2] = molecular target: MogR, the flagellar gene transcriptional repressor (Listeria monocytogenes EGD-e); experiment: as above

B1: Listeria monocytogenes thioredoxin A (TrxA) (enzyme, Listeria monocytogenes EGD-e, UniProt P0A4L3 1-103, looked up)
chain: MVKEITDATFEQETSEGLVLTDFWATWCGPCRMVAPVLEEIQEERGEALKIVKMDVDENPETPGSFGVMSIPTLLIKKDGEVVETIIGYRPKEELDEVINKYV
notes: Thioredoxin A (TrxA, Lmo1233) of L. monocytogenes EGD-e, full-length ORF; pET30a(+) may add further vector-encoded residues between the His tag and the ORF; also called Lmo1233
[1]
  binding: binds weakly
[2]
  binding: binds
